These are yes or no findings as the source states them, for the method shown. Binding seen in cells or lysates may run through a third protein. These calls come from enrichment with a bait or labelling near it, and not all partners need be listed. No binding means not detected with the bait.
B1: SAP18 (protein, UniProt O00422 1-153)
chain: MAVESRVTQEEIKKEPEKPIDREKTCPLLLRVFTTNNGRHHRMDEFSRGNVPSSELQIYTWMDATLKELTSLVKEVYPEARKKGTHFNFAIVFTDVKRPGYRVKEIGSTMSGRKGTDDSMTLQSQKFQIGDYLDIAITPPNRAPPPSGRMRPY

The chains behind the UniProt entries cited, without tags or fusion partners.
UniProt Q16666: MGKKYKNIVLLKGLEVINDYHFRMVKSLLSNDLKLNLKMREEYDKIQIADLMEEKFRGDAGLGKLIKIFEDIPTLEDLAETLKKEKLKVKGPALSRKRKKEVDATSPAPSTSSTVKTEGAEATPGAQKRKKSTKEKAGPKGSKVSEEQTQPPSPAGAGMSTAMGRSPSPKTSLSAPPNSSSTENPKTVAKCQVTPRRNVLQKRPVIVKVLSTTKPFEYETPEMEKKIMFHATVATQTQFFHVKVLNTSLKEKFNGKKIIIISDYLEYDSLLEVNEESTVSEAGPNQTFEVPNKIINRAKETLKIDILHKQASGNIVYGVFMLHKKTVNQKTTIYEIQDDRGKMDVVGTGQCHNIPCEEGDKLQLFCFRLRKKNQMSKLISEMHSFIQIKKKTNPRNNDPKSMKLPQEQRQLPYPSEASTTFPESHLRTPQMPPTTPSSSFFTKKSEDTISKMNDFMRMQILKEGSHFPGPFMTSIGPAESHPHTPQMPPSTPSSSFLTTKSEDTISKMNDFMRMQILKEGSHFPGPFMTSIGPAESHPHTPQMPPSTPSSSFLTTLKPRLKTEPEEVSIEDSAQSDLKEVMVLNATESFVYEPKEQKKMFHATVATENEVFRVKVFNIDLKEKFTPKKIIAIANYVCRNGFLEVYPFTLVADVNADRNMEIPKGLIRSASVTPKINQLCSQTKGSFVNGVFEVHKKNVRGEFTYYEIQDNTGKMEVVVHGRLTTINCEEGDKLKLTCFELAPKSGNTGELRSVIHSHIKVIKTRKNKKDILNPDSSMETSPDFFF
UniProt Q9UKL0: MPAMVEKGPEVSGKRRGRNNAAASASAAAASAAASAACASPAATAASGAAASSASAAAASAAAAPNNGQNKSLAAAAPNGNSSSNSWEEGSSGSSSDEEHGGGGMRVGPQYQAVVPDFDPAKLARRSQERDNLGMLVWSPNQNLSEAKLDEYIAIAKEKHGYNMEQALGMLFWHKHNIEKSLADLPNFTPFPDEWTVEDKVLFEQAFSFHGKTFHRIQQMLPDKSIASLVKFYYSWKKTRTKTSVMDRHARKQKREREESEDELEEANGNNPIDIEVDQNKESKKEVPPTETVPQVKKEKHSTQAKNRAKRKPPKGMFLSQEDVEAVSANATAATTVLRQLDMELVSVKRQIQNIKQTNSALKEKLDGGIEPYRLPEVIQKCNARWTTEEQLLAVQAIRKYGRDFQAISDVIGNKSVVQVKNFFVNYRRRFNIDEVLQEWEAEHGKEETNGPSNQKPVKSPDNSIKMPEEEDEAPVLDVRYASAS
UniProt Q92769: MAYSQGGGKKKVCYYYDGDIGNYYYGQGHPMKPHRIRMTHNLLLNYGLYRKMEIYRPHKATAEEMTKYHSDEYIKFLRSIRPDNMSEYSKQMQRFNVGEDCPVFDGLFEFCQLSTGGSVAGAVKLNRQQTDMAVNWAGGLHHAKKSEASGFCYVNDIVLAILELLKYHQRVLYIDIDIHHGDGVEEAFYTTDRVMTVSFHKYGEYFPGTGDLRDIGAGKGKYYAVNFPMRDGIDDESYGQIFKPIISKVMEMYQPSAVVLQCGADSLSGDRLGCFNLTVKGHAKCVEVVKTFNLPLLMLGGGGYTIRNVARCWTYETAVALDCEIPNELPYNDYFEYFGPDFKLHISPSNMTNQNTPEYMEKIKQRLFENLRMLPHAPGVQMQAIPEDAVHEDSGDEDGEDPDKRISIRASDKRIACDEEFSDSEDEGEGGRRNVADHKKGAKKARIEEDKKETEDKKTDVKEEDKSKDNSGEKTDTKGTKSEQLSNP
UniProt Q13547: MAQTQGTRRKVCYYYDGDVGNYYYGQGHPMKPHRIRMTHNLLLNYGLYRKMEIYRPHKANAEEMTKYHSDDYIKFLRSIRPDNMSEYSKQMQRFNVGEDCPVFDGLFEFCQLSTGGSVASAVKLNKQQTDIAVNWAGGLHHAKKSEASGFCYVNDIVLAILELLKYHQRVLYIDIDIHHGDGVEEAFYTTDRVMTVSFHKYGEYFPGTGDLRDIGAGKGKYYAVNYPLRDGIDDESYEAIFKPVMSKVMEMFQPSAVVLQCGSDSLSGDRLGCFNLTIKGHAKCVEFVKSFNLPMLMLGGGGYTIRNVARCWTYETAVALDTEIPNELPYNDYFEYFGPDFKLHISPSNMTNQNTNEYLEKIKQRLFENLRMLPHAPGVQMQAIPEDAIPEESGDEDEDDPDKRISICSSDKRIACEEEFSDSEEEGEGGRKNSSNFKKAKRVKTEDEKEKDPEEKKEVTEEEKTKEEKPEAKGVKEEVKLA
UniProt Q09028: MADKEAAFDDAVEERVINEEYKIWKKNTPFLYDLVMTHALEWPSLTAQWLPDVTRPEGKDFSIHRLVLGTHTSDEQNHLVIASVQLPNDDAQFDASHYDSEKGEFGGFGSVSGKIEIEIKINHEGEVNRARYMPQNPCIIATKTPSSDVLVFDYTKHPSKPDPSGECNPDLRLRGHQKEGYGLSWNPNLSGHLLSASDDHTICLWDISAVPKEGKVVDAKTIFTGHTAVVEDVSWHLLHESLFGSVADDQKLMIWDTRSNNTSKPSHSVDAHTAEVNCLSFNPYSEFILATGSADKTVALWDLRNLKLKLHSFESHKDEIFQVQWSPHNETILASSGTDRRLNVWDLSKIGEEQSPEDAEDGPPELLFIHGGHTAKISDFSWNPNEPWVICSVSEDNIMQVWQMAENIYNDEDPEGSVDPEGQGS
UniProt Q14839: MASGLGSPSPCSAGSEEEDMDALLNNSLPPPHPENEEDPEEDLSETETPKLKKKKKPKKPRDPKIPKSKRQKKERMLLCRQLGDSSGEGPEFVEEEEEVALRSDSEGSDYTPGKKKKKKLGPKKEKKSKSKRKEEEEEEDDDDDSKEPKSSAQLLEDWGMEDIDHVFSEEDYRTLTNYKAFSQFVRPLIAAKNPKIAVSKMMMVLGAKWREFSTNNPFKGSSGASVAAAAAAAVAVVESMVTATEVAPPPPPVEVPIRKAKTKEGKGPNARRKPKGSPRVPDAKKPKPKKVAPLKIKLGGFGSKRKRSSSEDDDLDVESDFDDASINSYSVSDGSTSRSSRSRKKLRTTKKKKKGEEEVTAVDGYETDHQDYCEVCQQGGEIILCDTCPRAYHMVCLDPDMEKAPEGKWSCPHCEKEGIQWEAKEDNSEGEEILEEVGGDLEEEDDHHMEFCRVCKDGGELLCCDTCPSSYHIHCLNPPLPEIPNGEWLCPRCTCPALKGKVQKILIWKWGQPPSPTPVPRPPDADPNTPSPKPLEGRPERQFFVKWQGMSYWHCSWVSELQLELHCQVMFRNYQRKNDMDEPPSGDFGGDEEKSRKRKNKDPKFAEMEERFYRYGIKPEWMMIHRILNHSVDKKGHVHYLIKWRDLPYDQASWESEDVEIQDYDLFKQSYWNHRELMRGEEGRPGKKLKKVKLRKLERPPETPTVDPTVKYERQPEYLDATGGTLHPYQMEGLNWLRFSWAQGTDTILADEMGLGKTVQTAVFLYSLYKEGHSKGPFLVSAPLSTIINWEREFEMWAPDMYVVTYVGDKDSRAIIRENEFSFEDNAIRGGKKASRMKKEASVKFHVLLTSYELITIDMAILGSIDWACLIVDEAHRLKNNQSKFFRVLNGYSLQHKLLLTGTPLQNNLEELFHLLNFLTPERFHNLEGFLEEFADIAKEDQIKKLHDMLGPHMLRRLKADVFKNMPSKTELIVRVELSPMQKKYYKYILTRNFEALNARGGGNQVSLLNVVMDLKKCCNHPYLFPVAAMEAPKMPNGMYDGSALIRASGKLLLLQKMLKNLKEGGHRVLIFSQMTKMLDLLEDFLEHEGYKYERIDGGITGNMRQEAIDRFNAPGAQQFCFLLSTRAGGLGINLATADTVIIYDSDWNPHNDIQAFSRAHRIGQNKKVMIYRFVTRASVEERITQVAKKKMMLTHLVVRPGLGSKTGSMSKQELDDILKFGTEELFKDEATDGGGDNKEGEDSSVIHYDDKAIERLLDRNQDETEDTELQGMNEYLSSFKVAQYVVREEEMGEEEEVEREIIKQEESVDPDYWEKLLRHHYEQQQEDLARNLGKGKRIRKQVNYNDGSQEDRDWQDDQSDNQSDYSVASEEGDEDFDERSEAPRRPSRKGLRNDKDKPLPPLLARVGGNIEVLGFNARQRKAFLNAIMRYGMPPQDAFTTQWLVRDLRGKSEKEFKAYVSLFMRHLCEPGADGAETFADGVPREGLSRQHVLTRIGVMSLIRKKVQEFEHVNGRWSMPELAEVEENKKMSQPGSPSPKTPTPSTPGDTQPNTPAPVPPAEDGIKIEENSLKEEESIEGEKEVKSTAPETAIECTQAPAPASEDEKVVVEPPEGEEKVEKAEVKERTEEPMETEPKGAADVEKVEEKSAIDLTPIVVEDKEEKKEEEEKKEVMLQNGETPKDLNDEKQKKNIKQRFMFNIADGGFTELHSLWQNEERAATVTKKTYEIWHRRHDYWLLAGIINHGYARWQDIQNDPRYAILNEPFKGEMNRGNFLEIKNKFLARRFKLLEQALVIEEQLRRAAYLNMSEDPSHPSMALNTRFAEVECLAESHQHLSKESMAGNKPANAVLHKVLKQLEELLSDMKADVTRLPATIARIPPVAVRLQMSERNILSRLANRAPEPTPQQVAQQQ

Target: interferon gamma-inducible protein 16 (IFI16) (human (endogenous in BCBL-1)) (UniProt Q16666)
Assay: affinity purification with mass spectrometry; 500 ug pre-cleared BCBL-1 whole cell lysate immunoprecipitated overnight at 4 °C with anti-IFI16 mouse monoclonal or rabbit polyclonal antibody or IgG; Protein A/G Dynabeads; on-bead trypsin digestion, LC-MS/MS, label-free quantification; enriched at Log2FC ≥ 0.6 over IgG

| binding | Molecule |
| --- | --- |
| no binding | CoREST (from UniProt Q9UKL0 1-485) |
| binds | histone deacetylase 2 (HDAC2) (from UniProt Q92769 1-488) (enzyme) |
| binds | histone deacetylase 1 (HDAC1) (from UniProt Q13547 1-482) (enzyme) |
| binds | RBBP4 (RbAp48) (from UniProt Q09028 1-425) |
| binds | CHD4 (from UniProt Q14839 1-1912) |
| binds | B1 |
